Data as given in article PMC10506284.
No constants are given. Whether binding was seen depends on the method and setting. In cells and extracts the contact can be indirect. Some entries that bind do so weakly or less than the wild type. Tags and fused reporters may be left off the sequences shown.

The chains behind the UniProt entries cited, without tags or fusion partners.
UniProt P08670: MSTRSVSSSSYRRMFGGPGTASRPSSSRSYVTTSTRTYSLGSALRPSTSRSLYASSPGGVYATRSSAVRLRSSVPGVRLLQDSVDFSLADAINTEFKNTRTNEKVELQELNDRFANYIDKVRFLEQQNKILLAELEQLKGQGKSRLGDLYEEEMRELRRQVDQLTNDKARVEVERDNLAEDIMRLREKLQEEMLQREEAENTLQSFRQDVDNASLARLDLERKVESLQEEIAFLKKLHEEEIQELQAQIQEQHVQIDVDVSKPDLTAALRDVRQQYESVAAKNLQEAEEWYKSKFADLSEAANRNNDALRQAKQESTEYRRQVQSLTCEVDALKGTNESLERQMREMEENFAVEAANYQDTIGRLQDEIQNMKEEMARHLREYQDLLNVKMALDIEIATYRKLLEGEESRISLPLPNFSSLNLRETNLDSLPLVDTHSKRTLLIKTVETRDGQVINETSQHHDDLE

T1: HA-tagged Ladinin-1 (LAD1), full-length open reading frame (human) (UniProt O00515)
T1 sequence: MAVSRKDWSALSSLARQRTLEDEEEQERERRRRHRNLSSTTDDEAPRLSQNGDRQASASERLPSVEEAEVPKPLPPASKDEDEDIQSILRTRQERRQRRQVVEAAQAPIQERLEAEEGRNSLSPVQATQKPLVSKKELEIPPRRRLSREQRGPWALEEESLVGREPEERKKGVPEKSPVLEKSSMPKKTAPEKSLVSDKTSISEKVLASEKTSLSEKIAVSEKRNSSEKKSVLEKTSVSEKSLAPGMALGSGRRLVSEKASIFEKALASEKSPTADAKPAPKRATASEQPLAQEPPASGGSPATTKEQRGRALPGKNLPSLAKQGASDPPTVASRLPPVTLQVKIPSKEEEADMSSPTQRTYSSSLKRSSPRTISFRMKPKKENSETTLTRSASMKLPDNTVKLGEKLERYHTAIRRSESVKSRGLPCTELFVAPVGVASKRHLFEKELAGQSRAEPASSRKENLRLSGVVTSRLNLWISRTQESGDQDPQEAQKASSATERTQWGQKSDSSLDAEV

B1: HA-tagged Ladinin-1 (LAD1), full-length open reading frame (protein, UniProt O00515 1-517)
chain: T1 sequence

Experiments:
[1] = biological target: Flag-tagged Vimentin (human) (UniProt P08670); assay: co-IP; co-IP of Vimentin with MAEA or LAD1 in MGC803 and MKN45 cells with increasing doses of the third protein (LAD1 or MAEA)
[2] = biological target: T1, HA-tagged Ladinin-1 (LAD1), full-length open reading frame (human); assay: co-IP; exogenous tagged proteins in transfected cells (MGC803 and MKN45 where named); low salt lysis buffer, supernatant with antibody (HA, Flag, 6xHis, MYC) and beads at 4 C overnight
[3] = biological target: Flag-tagged Vimentin (human) (UniProt P08670); assay: as above

Molecule	binding [1]	binding [2]	binding [3]
Macrophage erythroblast attacher (MAEA), tagged, exogenous (from UniProt Q7L5Y9-1 1-396)	binds	binds	binds
B1	binds		binds
